Test results reported in article doi:10.1101/2021.03.08.434336.
Read-outs that look alike come from different tables or passages of the source. No constants are given. Whether binding was seen depends on the method and setting. Binding seen in cells or lysates may run through a third protein. These calls come from enrichment with a bait or labelling near it, and not all partners need be listed. For some assays here: Tags and fused reporters may be left off the sequences shown. Blank lines part the entries; values can stand above or below the molecule they belong to.

Sequences of proteins named here, by UniProt entry; tags and fusion partners are left off.
UniProt Q07120: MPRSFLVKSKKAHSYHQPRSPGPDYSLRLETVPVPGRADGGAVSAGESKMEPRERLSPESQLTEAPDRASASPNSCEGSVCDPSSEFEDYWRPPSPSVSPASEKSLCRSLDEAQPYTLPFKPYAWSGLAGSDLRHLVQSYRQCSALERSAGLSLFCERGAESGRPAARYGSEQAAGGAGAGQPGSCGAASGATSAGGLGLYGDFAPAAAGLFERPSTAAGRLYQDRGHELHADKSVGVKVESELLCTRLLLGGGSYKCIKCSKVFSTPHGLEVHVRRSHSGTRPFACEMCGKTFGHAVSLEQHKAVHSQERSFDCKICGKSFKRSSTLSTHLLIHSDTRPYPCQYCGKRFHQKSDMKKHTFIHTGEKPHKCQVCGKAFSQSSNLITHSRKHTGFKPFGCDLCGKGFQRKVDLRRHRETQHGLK
UniProt Q9H165: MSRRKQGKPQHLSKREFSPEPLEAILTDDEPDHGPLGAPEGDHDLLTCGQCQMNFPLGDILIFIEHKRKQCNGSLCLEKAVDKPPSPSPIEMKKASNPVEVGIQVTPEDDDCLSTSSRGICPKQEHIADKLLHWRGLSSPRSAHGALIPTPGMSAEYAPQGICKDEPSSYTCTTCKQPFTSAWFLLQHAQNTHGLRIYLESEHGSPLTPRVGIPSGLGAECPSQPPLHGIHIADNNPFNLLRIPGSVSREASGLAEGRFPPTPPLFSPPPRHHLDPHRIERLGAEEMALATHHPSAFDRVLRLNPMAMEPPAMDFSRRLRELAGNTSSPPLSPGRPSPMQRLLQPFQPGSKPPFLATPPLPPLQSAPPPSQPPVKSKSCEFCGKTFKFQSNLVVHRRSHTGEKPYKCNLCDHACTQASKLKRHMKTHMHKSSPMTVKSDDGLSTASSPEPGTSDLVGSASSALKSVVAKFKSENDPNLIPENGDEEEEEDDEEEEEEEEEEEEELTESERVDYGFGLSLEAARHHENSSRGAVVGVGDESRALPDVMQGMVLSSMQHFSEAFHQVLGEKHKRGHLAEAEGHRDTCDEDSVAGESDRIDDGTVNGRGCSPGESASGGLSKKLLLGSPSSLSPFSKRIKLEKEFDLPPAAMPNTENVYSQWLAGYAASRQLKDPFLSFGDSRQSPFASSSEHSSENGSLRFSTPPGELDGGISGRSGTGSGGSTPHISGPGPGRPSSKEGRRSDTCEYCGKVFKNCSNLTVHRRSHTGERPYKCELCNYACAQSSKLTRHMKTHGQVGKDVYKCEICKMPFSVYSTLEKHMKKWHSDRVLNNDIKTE
UniProt Q9UKL0: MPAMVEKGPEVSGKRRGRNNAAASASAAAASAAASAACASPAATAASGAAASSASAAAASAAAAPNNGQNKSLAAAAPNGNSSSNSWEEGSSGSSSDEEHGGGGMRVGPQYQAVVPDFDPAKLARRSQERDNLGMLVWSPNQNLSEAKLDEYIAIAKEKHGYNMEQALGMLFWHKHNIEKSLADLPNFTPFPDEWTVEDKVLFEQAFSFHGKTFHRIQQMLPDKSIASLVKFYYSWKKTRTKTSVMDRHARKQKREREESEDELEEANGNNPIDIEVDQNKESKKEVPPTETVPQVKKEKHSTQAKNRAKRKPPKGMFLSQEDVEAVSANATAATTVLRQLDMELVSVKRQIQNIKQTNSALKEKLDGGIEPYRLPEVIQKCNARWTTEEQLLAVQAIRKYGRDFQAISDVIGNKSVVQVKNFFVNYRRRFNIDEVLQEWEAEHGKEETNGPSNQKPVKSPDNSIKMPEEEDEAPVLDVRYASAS

Assays:
[1] = biological target: GFI1-BirA*-HA (wild type), doxycycline-inducible in CCRF-CEM cells (rat) (UniProt Q07120); assay: proximity labelling
[2] = biological target: GFI1-BirA*-HA (wild type), doxycycline-inducible in CCRF-CEM cells (rat) (UniProt Q07120); assay: proximity labelling; remark: listed apart in the source

binding [1]: binds
Molecule: BCL11A (from UniProt Q9H165 1-835)

binding [1]: binds
Molecule: CoREST (RCOR1) (from UniProt Q9UKL0 1-485)

binding [2]: binds
B1: GSE1 (protein, UniProt Q14687 1-1217)
chain: MKGMSHEPKSPSLGMLSTATRTTATVNPLTPSPLNGALVPSGSPATSSALSAQAAPSSSFAAALRKLAKQAEEPRGSSLSSESSPVSSPATNHSSPASTPKRVPMGPIIVPPGGHSVPSTPPVVTIAPTKTVNGVWRSESRQDAGSRSSSGGRERLIVEPPLPQEKAGGPAIPSHLLSTPYPFGLSPSSVVQDSRFPPLNLQRPVHHVVPPSTVTEDYLRSFRPYHTTDDLRMSSLPPLGLDPATAAAYYHPSYLAPHPFPHPAFRMDDSYCLSALRSPFYPIPTPGSLPPLHPSAMHLHLSGVRYPPELSHSSLAALHSERMSGLSAERLQMDEELRREREREREREREREADREREKEREREREKEREQEKEREREKERERELERQREQRAREKELLAAKALEPSFLPVAELHGLRGHATEERGKPSEQLTPTRAEKLKDAGLQAPKPVQHPLHPVPTPHHTVPSLISNHGIFSLPSSSAATALLIQRTNEEEKWLARQRRLRQEKEDRQSQVSEFRQQVLEQHLDMGRPPVPAEAEHRPESTTRPGPNRHEPGGRDPPQHFGGPPPLISPKPQLHAAPTALWNPVSLMDNTLETRRAESHSLHSHPAAFEPSRQAAVPLVKVERVFCPEKAEEGPRKREPAPLDKYQPPPPPPREGGSLEHQPFLPGPGPFLAELEKSTQTILGQQRASLPQAATFGELSGPLKPGSPYRPPVPRAPDPAYIYDEFLQQRRRLVSKLDLEERRRREAQEKGYYYDLDDSYDESDEEEVRAHLRCVAEQPPLKLDTSSEKLEFLQLFGLTTQQQKEELVAQKRRKRRRMLRERSPSPPTIQSKRQTPSPRLALSTRYSPDEMNNSPNFEEKKKFLTIFNLTHISAEKRKDKERLVEMLRAMKQKALSAAVADSLTNSPRDSPAVSLSEPATQQASLDVEKPVGVAASLSDIPKAAEPGKLEQVRPQELSRVQELAPASGEKARLSEAPGGKKSLSMLHYIRGAAPKDIPVPLSHSTNGKSKPWEPFVAEEFAHQFHESVLQSTQKALQKHKGSVAVLSAEQNHKVDTSVHYNIPELQSSSRAPPPQHNGQQEPPTARKGPPTQELDRDSEEEEEEDDEDGEDEEEVPKRKWQGIEAVFEAYQEHIEEQNLERQVLQTQCRRLEARHYSLSLTAEQLSHSVAELRSQKQKMVSERERLQAELDHLRKCLALPAMHWPRGYLKGYPR

binding [2]: binds
B2: HMG20B (protein, UniProt Q9P0W2 1-317)
chain: MSHGPKQPGAAAAPAGGKAPGQHGGFVVTVKQERGEGPRAGEKGSHEEEPVKKRGWPKGKKRKKILPNGPKAPVTGYVRFLNERREQIRTRHPDLPFPEITKMLGAEWSKLQPTEKQRYLDEAEREKQQYMKELRAYQQSEAYKMCTEKIQEKKIKKEDSSSGLMNTLLNGHKGGDCDGFSTFDVPIFTEEFLDQNKAREAELRRLRKMNVAFEEQNAVLQRHTQSMSSARERLEQELALEERRTLALQQQLQAVRQALTASFASLPVPGTGETPTLGTLDFYMARLHGAIERDPAQHEKLIVRIKEILAQVASEHL

binding [2]: binds
B3: STAG1 (protein, UniProt Q8WVM7 1-1258)
chain: MITSELPVLQDSTNETTAHSDAGSELEETEVKGKRKRGRPGRPPSTNKKPRKSPGEKSRIEAGIRGAGRGRANGHPQQNGEGEPVTLFEVVKLGKSAMQSVVDDWIESYKQDRDIALLDLINFFIQCSGCRGTVRIEMFRNMQNAEIIRKMTEEFDEDSGDYPLTMPGPQWKKFRSNFCEFIGVLIRQCQYSIIYDEYMMDTVISLLTGLSDSQVRAFRHTSTLAAMKLMTALVNVALNLSIHQDNTQRQYEAERNKMIGKRANERLELLLQKRKELQENQDEIENMMNSIFKGIFVHRYRDAIAEIRAICIEEIGVWMKMYSDAFLNDSYLKYVGWTLHDRQGEVRLKCLKALQSLYTNRELFPKLELFTNRFKDRIVSMTLDKEYDVAVEAIRLVTLILHGSEEALSNEDCENVYHLVYSAHRPVAVAAGEFLHKKLFSRHDPQAEEALAKRRGRNSPNGNLIRMLVLFFLESELHEHAAYLVDSLWESSQELLKDWECMTELLLEEPVQGEEAMSDRQESALIELMVCTIRQAAEAHPPVGRGTGKRVLTAKERKTQIDDRNKLTEHFIITLPMLLSKYSADAEKVANLLQIPQYFDLEIYSTGRMEKHLDALLKQIKFVVEKHVESDVLEACSKTYSILCSEEYTIQNRVDIARSQLIDEFVDRFNHSVEDLLQEGEEADDDDIYNVLSTLKRLTSFHNAHDLTKWDLFGNCYRLLKTGIEHGAMPEQIVVQALQCSHYSILWQLVKITDGSPSKEDLLVLRKTVKSFLAVCQQCLSNVNTPVKEQAFMLLCDLLMIFSHQLMTGGREGLQPLVFNPDTGLQSELLSFVMDHVFIDQDEENQSMEGDEEDEANKIEALHKRRNLLAAFSKLIIYDIVDMHAAADIFKHYMKYYNDYGDIIKETLSKTRQIDKIQCAKTLILSLQQLFNELVQEQGPNLDRTSAHVSGIKELARRFALTFGLDQIKTREAVATLHKDGIEFAFKYQNQKGQEYPPPNLAFLEVLSEFSSKLLRQDKKTVHSYLEKFLTEQMMERREDVWLPLISYRNSLVTGGEDDRMSVNSGSSSSKTSSVRNKKGRPPLHKKRVEDESLDNTWLNRTDTMIQTPGPLPAPQLTSTVLRENSRPMGDQIQEPESEHGSEPDFLHNPQMQISWLGQPKLEDLNRKDRTGMNYMKVRTGVRHAVRGLMEEDAEPIFEDVMMSSRSQLEDMNEEFEDTMVIDLPPSRNRRERAELRPDFFDSAAIIEDDSGFGMPMF
